Source: patent EP2348142B1, “Method and composition for removing scale deposits formed on a metal surface within a steam generating system” (Westinghouse Electric Company LLC, priority 2010, dated 2011)

Conditions: mean over coupons (six DMA, two TMAH); for corrosion rate / dissolution rate, following three weeks: second testing period

| SMILES | corrosion rate / dissolution rate, first week | corrosion rate / dissolution rate, following three weeks |
| --- | --- | --- |
| CNC [DMA, dimethylamine, reference compound] | 0.992 ± 0.084 µm•year^-1 | 1.001 ± 0.052 µm•year^-1 |
| C[N+](C)(C)C.[OH-] [TMAH, Tetramethylammonium hydroxide] | 0.290 ± 0.045 µm•year^-1 | 0.043 ± 0.018 µm•year^-1 |
